Results are given in words; binding and its absence hold for the method and conditions named. For some of these results: Binding seen in cells or lysates may run through a third protein. Some results given as binding are weak or reduced against the parent protein; the word gives no strength.
Assays:
[1] = biological target: T1, ALPHA-2-MACROGLOBULIN (human) (UniProt P01023); assay: ELISA on lectin-coated plate, bound glycoprotein detected with IgY and HRP anti-IgY
T1 sequence (looked up): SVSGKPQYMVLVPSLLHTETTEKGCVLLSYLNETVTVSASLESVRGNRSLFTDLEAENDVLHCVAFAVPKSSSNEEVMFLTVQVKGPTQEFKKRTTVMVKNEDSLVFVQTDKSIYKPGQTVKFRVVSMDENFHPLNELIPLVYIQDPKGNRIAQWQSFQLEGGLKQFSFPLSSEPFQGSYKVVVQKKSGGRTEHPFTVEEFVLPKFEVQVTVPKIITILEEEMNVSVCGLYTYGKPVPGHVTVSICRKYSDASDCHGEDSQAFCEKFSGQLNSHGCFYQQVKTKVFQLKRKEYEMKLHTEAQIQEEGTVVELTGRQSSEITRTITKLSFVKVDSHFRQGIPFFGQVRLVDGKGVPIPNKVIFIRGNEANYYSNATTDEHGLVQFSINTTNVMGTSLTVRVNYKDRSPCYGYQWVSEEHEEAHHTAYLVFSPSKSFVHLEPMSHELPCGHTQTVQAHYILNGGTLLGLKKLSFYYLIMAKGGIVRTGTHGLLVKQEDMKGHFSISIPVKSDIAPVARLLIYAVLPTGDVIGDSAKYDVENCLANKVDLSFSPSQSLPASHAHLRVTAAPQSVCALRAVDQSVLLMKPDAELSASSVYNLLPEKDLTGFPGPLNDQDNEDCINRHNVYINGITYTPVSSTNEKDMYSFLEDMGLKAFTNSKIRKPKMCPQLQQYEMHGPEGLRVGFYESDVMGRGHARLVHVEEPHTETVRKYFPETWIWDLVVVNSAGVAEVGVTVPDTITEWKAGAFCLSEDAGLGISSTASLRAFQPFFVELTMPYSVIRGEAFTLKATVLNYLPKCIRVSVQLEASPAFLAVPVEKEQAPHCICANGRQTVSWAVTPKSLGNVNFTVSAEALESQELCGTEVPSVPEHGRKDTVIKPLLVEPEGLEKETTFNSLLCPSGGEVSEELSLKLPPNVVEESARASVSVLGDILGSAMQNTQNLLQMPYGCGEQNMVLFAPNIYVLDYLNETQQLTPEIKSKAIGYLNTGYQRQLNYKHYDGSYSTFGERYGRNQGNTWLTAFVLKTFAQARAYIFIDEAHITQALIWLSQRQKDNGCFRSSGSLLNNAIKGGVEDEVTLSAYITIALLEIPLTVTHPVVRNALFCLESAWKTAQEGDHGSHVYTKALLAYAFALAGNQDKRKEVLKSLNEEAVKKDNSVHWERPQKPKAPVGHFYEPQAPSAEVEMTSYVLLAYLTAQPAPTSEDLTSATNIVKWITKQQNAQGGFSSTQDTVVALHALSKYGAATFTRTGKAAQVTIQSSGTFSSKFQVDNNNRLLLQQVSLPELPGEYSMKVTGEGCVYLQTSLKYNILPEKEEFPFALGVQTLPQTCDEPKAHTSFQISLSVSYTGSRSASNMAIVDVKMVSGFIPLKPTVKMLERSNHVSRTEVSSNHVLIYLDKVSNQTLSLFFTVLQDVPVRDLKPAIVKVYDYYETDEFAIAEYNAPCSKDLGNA

By UniProt entry, the sequences of proteins in these tests, tags left out. Where a name states a change or a piece, a line headed by the entry shows the natural chain unless it says otherwise. Chains listed by the source or under a name are the forms on record and can include a tag or linker. Residues count along the entry.
UniProt P01009, residues 25-418: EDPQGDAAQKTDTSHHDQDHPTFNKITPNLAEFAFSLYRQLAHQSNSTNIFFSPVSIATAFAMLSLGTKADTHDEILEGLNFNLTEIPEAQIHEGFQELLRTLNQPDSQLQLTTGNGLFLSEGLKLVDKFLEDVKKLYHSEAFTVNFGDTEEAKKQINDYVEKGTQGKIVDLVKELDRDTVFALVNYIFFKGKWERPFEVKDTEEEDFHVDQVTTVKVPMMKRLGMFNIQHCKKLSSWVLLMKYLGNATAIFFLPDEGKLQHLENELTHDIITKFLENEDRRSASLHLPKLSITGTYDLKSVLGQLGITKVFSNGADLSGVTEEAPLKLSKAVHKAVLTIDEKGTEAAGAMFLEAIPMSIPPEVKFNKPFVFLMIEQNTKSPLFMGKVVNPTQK
IG ALPHA-1 CHAIN C REGION (P01876, form named): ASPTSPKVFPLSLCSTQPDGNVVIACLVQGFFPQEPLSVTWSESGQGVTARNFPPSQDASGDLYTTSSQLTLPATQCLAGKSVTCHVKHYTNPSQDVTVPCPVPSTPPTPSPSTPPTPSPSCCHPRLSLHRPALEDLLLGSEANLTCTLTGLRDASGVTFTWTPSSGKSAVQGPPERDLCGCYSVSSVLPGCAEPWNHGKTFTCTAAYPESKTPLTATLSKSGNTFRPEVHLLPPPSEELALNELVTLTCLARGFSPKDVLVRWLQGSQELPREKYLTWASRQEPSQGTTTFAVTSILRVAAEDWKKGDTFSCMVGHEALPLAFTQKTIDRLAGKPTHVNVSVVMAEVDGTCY
UniProt P02768, residues 25-609: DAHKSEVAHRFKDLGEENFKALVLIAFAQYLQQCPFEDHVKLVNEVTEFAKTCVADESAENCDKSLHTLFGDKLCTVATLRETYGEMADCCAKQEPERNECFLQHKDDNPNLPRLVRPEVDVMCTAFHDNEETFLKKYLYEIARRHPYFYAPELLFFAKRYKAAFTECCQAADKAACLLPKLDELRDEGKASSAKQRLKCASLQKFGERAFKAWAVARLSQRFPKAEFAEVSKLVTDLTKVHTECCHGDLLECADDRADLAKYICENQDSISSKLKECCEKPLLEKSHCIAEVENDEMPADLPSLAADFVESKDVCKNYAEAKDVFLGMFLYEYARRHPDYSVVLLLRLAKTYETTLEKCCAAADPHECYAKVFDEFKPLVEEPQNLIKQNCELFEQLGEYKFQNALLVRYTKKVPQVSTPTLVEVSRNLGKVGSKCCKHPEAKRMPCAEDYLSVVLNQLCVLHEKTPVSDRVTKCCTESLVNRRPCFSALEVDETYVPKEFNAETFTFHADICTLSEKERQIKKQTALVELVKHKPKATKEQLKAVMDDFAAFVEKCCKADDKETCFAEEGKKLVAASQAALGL
UniProt P02649, residues 19-317: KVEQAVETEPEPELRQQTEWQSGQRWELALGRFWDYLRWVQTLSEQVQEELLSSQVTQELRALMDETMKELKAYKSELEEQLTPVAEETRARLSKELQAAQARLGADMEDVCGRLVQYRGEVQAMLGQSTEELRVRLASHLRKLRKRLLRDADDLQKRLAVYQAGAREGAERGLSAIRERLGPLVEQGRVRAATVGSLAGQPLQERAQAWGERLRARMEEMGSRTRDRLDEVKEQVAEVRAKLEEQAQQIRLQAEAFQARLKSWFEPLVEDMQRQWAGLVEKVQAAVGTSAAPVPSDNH

[2] = biological target: Alpha-1-antitrypsin (human) (UniProt P01009); assay: as above
[3] = biological target: IG ALPHA-1 CHAIN C REGION (human) (UniProt P01876); assay: human serum on M-LAC column, sequential displacer fractions, LC-MS/MS
SERUM ALBUMIN (human) = SERUM ALBUMIN (human) (UniProt P02768); assay: as above
[4] = biological target: T1, ALPHA-2-MACROGLOBULIN (human); assay: as above
APOLIPOPROTEIN E (human) = APOLIPOPROTEIN E (human) (UniProt P02649); assay: as above

Measured: binding

B1: wheat germ agglutinin (WGA), agarose-bound (protein, UniProt P10968 27-197, looked up)
chain: QRCGEQGSNMECPNNLCCSQYGYCGMGGDYCGKGCQNGACWTSKRCGSQAGGATCTNNQCCSQYGYCGFGAEYCGAGCQGGPCRADIKCGSQAGGKLCPNNLCCSQWGFCGLGSEFCGGGCQSGACSTDKPCGKDAGGRVCTNNYCCSKWGSCGIGPGYCGAGCQSGGCDG
modifications: immobilized on agarose
not listed: APOLIPOPROTEIN E (human)
binds: all other assays above

B2: Jacalin lectin, agarose-bound (protein)
chain 1: GKAFDDGAFTGIREINLSYNKETAIGDFQVVYDLNGSPYVGQNHKSFITGFTPVKISLDFPSEYIMEVSGYTGNVSGYVVVRSLTFKTNKKTYGPYGVTSGTPFNLPIENGLIVGFKGSIGYWLDYFSMYLSL
chain 2: NEQSGKSQTVIVGSWGAKVS
modifications: immobilized on agarose
binds: SERUM ALBUMIN (human) | APOLIPOPROTEIN E (human)
